Results reported in publication PMC7675186.
No constants are given. Whether binding was seen depends on the method and setting. In cells and extracts the contact can be indirect. Some binding calls cover weakened binding; strength is not graded here.

Target: PPARγ-S273A (UniProt P37238)
Assay: co-IP; whole-cell extracts of transgenic 4T1 cells, antibodies overnight, protein A/G beads 2 h, five washes with low-salt lysis buffer, immunoblot; forward and reverse

B1: epithelial splicing regulatory protein 1 (ESRP1) (protein, UniProt Q3US41 1-680)
chain: MTASPDYLVVLFGITAGATGAKLGSDEKELILLLWKVVDLANKKVGQLHEVLVRPDQLELTEDCKEETKIDAENLSSAPQLDQALRQFNQSVSNELNIGVGTSFCLCTDGQLHIRQILHPEASKKNVLLPECFYSFFDLRKEFKKCCPGSPDIDKLDVAAMTESLNFEKSDSVSRYGASQVEDMGNIILAMISEPYNHRFSDPERVNYKFESGTCKMELIDDSTVVRARGLPWQSSDQDIARFFKGLNIAKGGAALCLNAQGRRNGEALVRFVSEEHRDLALQRHKHHMGTRYIEVYKATGEDFLKIAGGTSNEVAQFLSKENQVIVRMRGLPFTATAEEVVAFFGQHCPITGGKEGILFVTYPDGRPTGDAFVLFACEEYAQNALRKHKELLGKRYIELFRSTAAEVQQVLNRFSSAPLIPLPTPPIIPVLPQQFVPPTNVRDCIRLRGLPYAATIEDILDFLGEFSTDIRTHGVHMVLNHQGRPSGDAFIQMKSTDRAFMAAQKYHKKTMKDRYVEVFQCSAEEMNFVLMGGTLNRNGLSPPPCKLPCLSPPSYTFPAPTAVIPTEAAIYQPSLLLNPRALQPSTAYYPAGTQLFMNYTAYYPSPPGSPNSLGYFPTAANLSSVPPQPGTVVRMQGLAYNTGVKEILNFFQGYQYATEDGLVHTNDQARTLPKEWVCI
binding: binds
